In the experiment the test system is A. baumannii ATCC 19606. Conditions: serial exposure at MIC/2.

The record followed here is publication PMC12848717, “Discovery of Encrypted Peptides in a Human Matrix Metallopeptidase” (JACS Au, 2025).

Turning to `O=C(O)c1cn(C2CC2)c2cc(N3CCNCC3)c(F)cc2c1=O` [Ciprofloxacin], the “increase of MIC over 21 days of exposure” value was 16 fold.
